# “And” between values parts separate entries of the source, which are not always exact repeats. Identical values can stand only once. The list shows a part of the results. These are further read-outs of the screen, such as a control signal, another cell line or another target. No call is given for them. The list favours compounds with an active or inconclusive main result. The note in brackets gives the kind of curve behind each potency; many fits are weak.
# Experiment: Cell signaling CRE-BLA (Fsk stim)
# Conditions: CHO CRE-bla reporter (cAMP response element driving beta-lactamase), forskolin EC10, beta-lactamase ratio; measured here: 460 nm blue channel
# Outline: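 Titrated compounds plus EC10 NKH 477 on CHO CRE-bla cells, 3 h, 37 °C. CCF4, 2 h RT. Ratio 460/530 nm → AC50.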
row,SMILES,AC50
1,CCn1c(SCC(=O)Nc2cc(NC(C)=O)ccc2OC)nnc1-c1ccccn1,"7.94 µM [rising, partial curve, poor fit]"
2,c1ccc(-c2nc3ccccc3o2)nc1,"0.316 µM [falling, partial curve]"
3,N#Cc1cc2c(nc1SCc1cccnc1)CCCCC2,"12.6 µM [rising, partial curve]"
4,c1ccc(C(Cc2nc(-c3ccccn3)no2)c2ccccc2)cc1,"10 µM [falling, single point]"
5,C=CCn1c(=O)c(C(=O)NCCc2ccccc2)c(O)c2ccccc21,"1.58 µM [rising, full curve, poor fit]"
6,COc1cccc(-n2c(SCC(=O)Nc3cc(C)on3)nc3c([nH]c4ccccc43)c2=O)c1,"3.16 µM [rising, full curve]"
7,COc1cccc(Cn2c(=O)c(-c3ccc(F)cc3)nc3cnc(OC)nc32)c1,"6.31 µM [rising, partial curve]"
8,COc1ccc(Br)cc1C(=O)Nc1ccc(N2CCN(S(C)(=O)=O)CC2)cc1,"15.8 µM [rising, single point]"
9,CN(C)CC(C)(C)NS(=O)(=O)c1ccc(Cl)cc1,"0.00316 µM [falling, full curve, poor fit]"
10,COc1ccc(C2CC(=O)Nc3ccccc3S2(=O)=O)cc1OC (configuration not stated),"0.0158 µM [falling, full curve, poor fit]"
11,CCCCn1c(SCC(=O)Nc2cc(C)on2)nnc1-c1cccnc1,"5.01 µM [falling, single point]"
12,Cc1cccc(-n2ncc3c(NCc4ccccc4)ncnc32)c1,"10 µM [rising, partial curve]"
13,O=C(CCc1ccccc1)NCc1ccccn1,"0.00316 µM [falling, full curve, poor fit]"
14,CCOc1ccc(Nc2cc(C)nc(-n3nc(C)cc3C)n2)cc1,"5.01 µM [rising, partial curve]"
15,Cc1ccccc1-n1c(=O)cc(N2CC(C)OC(C)C2)[nH]c1=O (configuration not stated),"0.00398 µM [falling, full curve]"
16,COCCn1c(=N)c(C(=O)NCCc2ccc(OC)cc2)cc2c(=O)n3cccc(C)c3nc21,"2.51 µM [rising, full curve]"
17,CCOC(=O)C1CCN(C(c2cccs2)c2sc3nc(C)nn3c2O)CC1 (configuration not stated),"5.01 µM [rising, partial curve]"
18,O=C(Nc1ccc(O)cc1)C1CC=CCC1 (configuration not stated),"20 µM [falling, partial curve]"
19,Cc1nn(Cc2ccc(F)cc2)c(C)c1NC(=O)c1cc(-c2ccc3c(c2)OCO3)on1,"7.94 µM [rising, partial curve]"
20,Cn1nnnc1SCC(=O)Nc1ccccc1N1CCOCC1,"3.98 µM [falling, partial curve]"
21,CC1(C)CC(OC(=O)c2ccco2)CC(C)(C)N1O,"3.16 µM [falling, partial curve, poor fit]"
22,CC(C)NC(=O)C(C)n1cccc1C(=O)c1ccccc1 (configuration not stated),"0.631 µM [falling, full curve, poor fit]"
23,CC(C)N(CCC(=O)c1ccc2ccccc2c1)Cc1ccccc1,"15.8 µM [falling, partial curve] and 15.8 µM [falling, partial curve, poor fit]"

row,SMILES,AC50
1,CCc1nc(-c2ccccc2O)n(-c2ccccc2)n1,"10 µM [rising, single point]"
2,O=c1c(-c2cccc(Cl)c2)nc2cncnc2n1Cc1ccccc1Cl,"12.6 µM [rising, partial curve]"
3,CCCn1c(SCC(=O)N2CCN(c3ccccc3)CC2)nc2ccccc2c1=O,"5.01 µM [falling, partial curve]"
4,CC(Cc1ccccc1)C(=O)NCCc1c[nH]c2ccccc12 (configuration not stated),"10 µM [falling, single point]"
5,CC1CCc2c(sc(NC(=O)c3noc4c3CCCC4)c2C(N)=O)C1 (configuration not stated),"12.6 µM [rising, single point]"
6,O=c1c(-c2cc(F)cc(F)c2)nc2cnc(N3CCNCC3)nc2n1Cc1ccc(F)cc1,"1.26 µM [rising, full curve]"
7,Cc1cc(C(=O)CSc2nnc(-c3ccco3)o2)c(C)n1CC1COc2ccccc2O1 (configuration not stated),"7.94 µM [falling, partial curve]"
8,c1nc2nc3c(c(N4CCOCC4)n2n1)CCCC3,"2.51 µM [rising, full curve]"
9,O=C(CCCCn1c(=O)c2ccccc2n(CC(=O)NC2CCCC2)c1=O)NCc1ccco1,"0.501 µM [falling, partial curve]"
10,NC(=O)C1(N2CCCCC2)CCN(C(=O)c2cccn3c(=O)c4cc(Cl)ccc4nc23)CC1,"15.8 µM [rising, partial curve]"
11,c1ccc2c(N3CCOCC3)nc(-c3ccoc3)nc2c1,"5.01 µM [rising, partial curve]"
12,CCOC(=O)CSc1nc2cc(C(=O)NCc3ccco3)ccc2c(=O)n1C1CCCCC1,"1 µM [rising, single point]"
13,CCOCCCn1c(=N)c(C(N)=S)cc2c(=O)n3cccc(C)c3nc21,"20 µM [rising, single point]"
14,CCOC(=O)c1c(NC(=O)CSc2nnnn2CC)sc(C)c1C,"12.6 µM [rising, partial curve]"
15,CCCS(=O)(=O)N1CCc2cc(OC)c(OC)cc2C1,"25.1 µM [rising, single point]"
16,COC(=O)Nc1nnc(-c2ccccc2Cl)s1,"10 µM [rising, single point]"
17,CCOC(=O)c1cc2c(=O)n3ccccc3nc2n(CC2CCCO2)c1=NC(C)=O (configuration not stated),"12.6 µM [rising, partial curve]"
18,O=C(c1cc(-c2ccc(Cl)c(Cl)c2)on1)N1CCCCC1,"1.26 µM [rising, full curve, poor fit]"
19,COc1cc(C2C(C(=O)c3ccc(C)o3)=C(O)C(=O)N2Cc2cccnc2)ccc1O (configuration not stated),"15.8 µM [falling, partial curve]"
20,Cn1c(=O)n(CC(=O)N2CCN(c3nnc(-c4ccccc4)c4ccccc34)CC2)c2ccccc21,"12.6 µM [falling, single point]"
21,COc1ccc(Cl)c(Cn2c(NCc3ccco3)nc3c2c(=O)n(C)c(=O)n3C)c1,"15.8 µM [rising, partial curve]"
22,CCOC(=O)c1sc(NC(=O)c2ccc(S(=O)(=O)N3CCOCC3)cc2)cc1C,"15.8 µM [rising, partial curve]"
23,COc1ccc(OC)c(C2=NOC(C(=O)NCCN3CCOCC3)C2)c1 (configuration not stated),"0.01 µM [falling, full curve]"

row,SMILES,AC50
1,CC1CCCCC1NC(=O)C1Cc2ccccc2CN1S(C)(=O)=O (configuration not stated),"3.16 µM [falling, single point]"
2,COc1cccc(-n2nnc3c(=O)n(Cc4cccc(F)c4)cnc32)c1,"10 µM [rising, partial curve]"
3,COC(=O)c1ccccc1NC(=O)COC(=O)c1ccc(C)c(NC(=O)c2ccco2)c1,"7.94 µM [rising, partial curve]"
4,O=C(CSc1ncnc2nc[nH]c12)N1CCOCC1,"0.00398 µM [falling, full curve, poor fit]"
5,COC(=O)CSc1nc2sc(C)c(C)c2c(=O)n1C,"3.98 µM [rising, full curve]"
6,Cc1nc2cnc(N(C)C)nc2n(CCC#N)c1=O,"10 µM [rising, partial curve]"
7,NC(=O)c1cc(-c2ccccc2)sc1NC(=O)Cc1ccc(S(=O)(=O)N2CCOCC2)s1,"1 µM [rising, full curve, poor fit]"
8,Cc1cc(NC(=O)COC(=O)CSc2nc3cc(Cl)ccc3n2Cc2ccccc2)no1,"25.1 µM [rising, single point]"
9,COCCn1c(=O)c(-c2cccs2)nc2cnc(Nc3ccccc3)nc21,"1.58 µM [rising, full curve]"
10,Cc1cc(NC(=O)CCC(=O)N(C2CC2)C2(C(=O)NC3CCCC3)CCC(C)CC2)no1 (configuration not stated),"25.1 µM [rising, single point]"
11,CN1CCN(c2nc(-c3ccoc3)nc3ccccc23)CC1,"10 µM [rising, partial curve]"
12,COC(=O)CSc1nc2cc3c(cc2cc1C#N)OCO3,"5.01 µM [falling, single point]"
13,O=C(C1CCCN(S(=O)(=O)c2cccc3cccnc23)C1)N1CCN(c2ccccc2F)CC1 (configuration not stated),"3.98 µM [falling, partial curve]"
14,CSc1nnc(-c2ccco2)n1-c1ccccc1,"10 µM [rising, single point]"
15,CCOC(=O)C1CCN(c2cc(C)nc3cc(-c4cccc(F)c4)nn23)CC1,"12.6 µM [rising, partial curve]"
16,Cc1nc2ccccc2nc1OCC(=O)Nc1cc(C(F)(F)F)ccc1N1CCOCC1,"10 µM [rising, partial curve]"
17,CCc1c(C(=O)NCc2ccc3c(c2)OCO3)[nH]c(C)c1C(C)=O,"1 µM [falling, single point]"
18,Cc1c(NC(=O)c2cc(C(C)C)on2)c(=O)n(-c2ccccc2)n1C,"5.01 µM [falling, partial curve, poor fit]"
19,CCOC(=O)c1[nH]c(C)c(CN(CCc2ccccc2)S(C)(=O)=O)c1C,"3.98 µM [rising, full curve]"
20,O=C(NCCc1cn2ccsc2n1)c1cccs1,"12.6 µM [rising, partial curve]"
21,COc1ccc(-n2nnc3c(=O)n(CC(=O)N4CCCc5ccccc54)cnc32)cc1,"15.8 µM [rising, single point]"
